Measurements reported in publication doi:10.1101/2023.12.12.571217.
No constants are given. Whether binding was seen depends on the method and setting. Binding seen in cells or lysates may run through a third protein. These calls come from enrichment with a bait or labelling near it, and not all partners need be listed.

Amino acid sequences for entries named in this document (tags omitted).
UniProt Q9ESJ0: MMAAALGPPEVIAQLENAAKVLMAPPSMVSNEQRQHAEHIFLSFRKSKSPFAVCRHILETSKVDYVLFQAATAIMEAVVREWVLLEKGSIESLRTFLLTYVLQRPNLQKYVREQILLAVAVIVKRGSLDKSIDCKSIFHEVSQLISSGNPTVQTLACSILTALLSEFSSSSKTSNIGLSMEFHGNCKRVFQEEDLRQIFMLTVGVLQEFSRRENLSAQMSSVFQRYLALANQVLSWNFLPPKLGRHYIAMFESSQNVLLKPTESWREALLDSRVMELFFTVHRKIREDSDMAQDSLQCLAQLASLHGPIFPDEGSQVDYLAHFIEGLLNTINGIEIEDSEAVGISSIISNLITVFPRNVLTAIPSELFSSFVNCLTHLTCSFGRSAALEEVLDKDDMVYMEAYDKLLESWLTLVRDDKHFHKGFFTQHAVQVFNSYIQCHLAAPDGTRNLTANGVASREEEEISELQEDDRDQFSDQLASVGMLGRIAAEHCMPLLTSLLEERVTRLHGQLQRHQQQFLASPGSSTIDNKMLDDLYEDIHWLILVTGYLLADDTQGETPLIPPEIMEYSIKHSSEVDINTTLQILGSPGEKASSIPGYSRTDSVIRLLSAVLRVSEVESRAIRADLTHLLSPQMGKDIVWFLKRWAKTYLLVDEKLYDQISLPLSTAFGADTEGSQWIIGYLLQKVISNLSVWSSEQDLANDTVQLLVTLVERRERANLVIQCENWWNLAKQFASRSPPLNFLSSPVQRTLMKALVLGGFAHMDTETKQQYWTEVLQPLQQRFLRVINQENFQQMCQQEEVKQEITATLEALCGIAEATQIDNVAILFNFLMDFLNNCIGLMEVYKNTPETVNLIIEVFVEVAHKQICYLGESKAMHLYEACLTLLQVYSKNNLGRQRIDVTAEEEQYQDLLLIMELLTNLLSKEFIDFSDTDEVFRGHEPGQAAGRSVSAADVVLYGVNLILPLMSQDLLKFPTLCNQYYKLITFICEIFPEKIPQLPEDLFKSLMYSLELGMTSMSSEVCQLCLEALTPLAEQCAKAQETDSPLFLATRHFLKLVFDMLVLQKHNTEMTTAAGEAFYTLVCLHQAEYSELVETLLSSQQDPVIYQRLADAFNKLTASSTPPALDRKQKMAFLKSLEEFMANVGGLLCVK
UniProt P80316: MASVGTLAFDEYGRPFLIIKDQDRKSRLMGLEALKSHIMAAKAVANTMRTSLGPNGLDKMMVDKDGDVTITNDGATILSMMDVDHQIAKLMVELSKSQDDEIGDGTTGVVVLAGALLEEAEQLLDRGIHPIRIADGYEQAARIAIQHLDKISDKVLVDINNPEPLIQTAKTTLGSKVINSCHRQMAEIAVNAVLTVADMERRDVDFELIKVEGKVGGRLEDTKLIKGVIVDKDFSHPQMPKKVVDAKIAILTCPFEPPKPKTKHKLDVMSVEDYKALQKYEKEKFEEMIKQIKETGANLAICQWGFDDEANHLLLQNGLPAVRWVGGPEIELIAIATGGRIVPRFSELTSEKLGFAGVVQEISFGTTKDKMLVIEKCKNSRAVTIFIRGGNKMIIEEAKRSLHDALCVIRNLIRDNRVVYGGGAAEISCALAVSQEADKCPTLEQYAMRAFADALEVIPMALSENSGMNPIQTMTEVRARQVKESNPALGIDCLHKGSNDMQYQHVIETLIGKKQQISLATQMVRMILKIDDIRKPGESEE
UniProt Q7TMY7: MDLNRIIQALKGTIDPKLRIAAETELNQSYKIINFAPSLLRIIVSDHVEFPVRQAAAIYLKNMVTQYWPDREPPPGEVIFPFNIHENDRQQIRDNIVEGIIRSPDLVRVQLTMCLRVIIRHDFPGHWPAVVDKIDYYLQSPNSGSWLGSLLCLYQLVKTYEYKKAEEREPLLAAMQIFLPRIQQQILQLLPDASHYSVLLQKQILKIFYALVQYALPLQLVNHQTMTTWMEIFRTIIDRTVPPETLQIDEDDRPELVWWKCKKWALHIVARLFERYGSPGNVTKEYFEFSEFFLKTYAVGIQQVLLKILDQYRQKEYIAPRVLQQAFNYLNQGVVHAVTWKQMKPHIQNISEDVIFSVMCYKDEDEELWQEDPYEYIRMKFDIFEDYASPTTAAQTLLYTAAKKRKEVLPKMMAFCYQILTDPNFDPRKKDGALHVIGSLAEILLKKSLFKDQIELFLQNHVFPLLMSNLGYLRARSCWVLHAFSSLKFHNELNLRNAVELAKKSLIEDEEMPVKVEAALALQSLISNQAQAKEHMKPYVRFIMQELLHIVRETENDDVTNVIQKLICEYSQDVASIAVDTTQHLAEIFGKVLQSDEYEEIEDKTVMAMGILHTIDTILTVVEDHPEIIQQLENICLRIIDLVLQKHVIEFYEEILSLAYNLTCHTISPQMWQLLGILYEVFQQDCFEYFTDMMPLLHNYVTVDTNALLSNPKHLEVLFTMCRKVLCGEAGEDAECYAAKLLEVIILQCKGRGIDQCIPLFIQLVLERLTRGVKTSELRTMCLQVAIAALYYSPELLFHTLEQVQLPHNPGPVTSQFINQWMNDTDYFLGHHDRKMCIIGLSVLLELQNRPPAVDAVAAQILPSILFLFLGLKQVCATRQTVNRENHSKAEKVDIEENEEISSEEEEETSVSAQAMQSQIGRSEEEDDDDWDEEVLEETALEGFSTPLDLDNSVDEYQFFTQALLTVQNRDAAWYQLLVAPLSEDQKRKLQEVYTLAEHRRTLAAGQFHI
UniProt Q6P5F9: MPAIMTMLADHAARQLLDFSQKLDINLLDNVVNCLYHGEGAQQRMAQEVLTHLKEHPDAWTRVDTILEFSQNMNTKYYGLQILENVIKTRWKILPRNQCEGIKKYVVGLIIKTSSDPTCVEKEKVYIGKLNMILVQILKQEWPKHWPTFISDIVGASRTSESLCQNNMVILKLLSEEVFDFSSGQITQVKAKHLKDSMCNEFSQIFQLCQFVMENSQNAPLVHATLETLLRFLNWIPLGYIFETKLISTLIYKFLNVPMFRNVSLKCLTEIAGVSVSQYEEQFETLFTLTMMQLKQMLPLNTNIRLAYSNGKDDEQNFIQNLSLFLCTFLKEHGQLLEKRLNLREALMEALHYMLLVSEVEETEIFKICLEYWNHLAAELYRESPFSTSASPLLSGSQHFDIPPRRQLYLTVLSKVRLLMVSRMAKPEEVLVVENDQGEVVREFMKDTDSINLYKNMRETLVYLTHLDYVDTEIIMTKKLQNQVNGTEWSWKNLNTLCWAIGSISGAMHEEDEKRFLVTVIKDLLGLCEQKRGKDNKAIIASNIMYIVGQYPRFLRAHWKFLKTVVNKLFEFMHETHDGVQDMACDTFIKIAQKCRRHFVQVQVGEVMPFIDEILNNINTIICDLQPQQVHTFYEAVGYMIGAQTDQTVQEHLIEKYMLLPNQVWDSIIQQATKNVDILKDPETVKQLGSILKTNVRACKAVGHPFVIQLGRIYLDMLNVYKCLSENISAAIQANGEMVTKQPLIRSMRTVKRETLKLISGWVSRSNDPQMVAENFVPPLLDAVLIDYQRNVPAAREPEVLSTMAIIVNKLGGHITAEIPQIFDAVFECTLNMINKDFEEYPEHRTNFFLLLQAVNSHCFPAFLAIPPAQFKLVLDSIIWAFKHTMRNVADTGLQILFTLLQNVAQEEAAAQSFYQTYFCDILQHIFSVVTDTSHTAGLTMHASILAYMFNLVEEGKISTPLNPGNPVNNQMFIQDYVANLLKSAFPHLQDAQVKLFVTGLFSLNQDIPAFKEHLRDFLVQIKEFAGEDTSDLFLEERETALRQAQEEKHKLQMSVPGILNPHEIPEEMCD
UniProt P97820: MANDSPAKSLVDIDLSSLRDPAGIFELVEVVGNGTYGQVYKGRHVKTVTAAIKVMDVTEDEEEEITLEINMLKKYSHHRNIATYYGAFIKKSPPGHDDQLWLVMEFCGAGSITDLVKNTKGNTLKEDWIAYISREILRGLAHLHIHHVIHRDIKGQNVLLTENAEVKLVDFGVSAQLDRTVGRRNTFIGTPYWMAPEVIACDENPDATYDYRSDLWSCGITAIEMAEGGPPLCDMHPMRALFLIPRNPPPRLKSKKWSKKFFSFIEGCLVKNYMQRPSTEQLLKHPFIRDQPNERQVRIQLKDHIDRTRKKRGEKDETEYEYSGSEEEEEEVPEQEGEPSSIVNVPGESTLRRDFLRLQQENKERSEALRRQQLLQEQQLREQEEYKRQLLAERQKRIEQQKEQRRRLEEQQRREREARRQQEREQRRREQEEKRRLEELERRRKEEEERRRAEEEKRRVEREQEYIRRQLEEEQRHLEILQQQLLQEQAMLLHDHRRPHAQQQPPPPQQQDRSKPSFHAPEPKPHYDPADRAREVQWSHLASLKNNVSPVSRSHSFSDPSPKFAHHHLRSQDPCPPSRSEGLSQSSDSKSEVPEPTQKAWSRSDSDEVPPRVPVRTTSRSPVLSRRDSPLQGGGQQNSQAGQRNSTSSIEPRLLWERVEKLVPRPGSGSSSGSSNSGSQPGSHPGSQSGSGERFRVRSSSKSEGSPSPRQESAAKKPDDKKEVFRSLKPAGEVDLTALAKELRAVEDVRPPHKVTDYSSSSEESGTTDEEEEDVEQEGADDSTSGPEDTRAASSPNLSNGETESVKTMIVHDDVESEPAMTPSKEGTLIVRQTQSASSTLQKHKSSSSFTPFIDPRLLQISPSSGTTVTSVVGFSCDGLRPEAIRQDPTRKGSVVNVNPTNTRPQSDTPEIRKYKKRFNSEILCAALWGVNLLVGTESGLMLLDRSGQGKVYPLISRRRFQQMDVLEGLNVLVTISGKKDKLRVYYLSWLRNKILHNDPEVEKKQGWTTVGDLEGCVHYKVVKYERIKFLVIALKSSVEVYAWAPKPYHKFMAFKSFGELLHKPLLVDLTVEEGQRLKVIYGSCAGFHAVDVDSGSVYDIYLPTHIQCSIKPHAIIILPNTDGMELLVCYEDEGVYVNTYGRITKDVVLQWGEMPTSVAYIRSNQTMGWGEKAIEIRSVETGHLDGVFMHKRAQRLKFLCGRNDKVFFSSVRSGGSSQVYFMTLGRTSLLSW

target: human PADI4 stably expressed in E14 mouse embryonic stem cells (hPADI4-stable) (human) (UniProt Q9UM07); experiment: affinity purification with mass spectrometry

Molecule	binding
exportin Xpo4 (from UniProt Q9ESJ0 1-1151)	binds
Cct5 (from UniProt P80316 1-541)	binds
importin Ipo8 (from UniProt Q7TMY7 1-1010)	binds
exportin Xpo1 (from UniProt Q6P5F9 1-1071)	binds
mitogen-activated protein kinase Map4k4 (from UniProt P97820 1-1233)	binds
Cip2a (from UniProt Q8BWY9 1-907)	binds
Cct3 (protein, UniProt P80318 1-545) MMGHRPVLVLSQNTKRESGRKVQSGNINAAKTIADIIRTCLGPKSMMKMLLDPMGGIVMTNDGNAILREIQVQHPAAKSMIEISRTQDEEVGDGTTSVIILAGEMLSVAEHFLEQQMHPTVVISAYRMALDDMISTLKKISTPVDVNNREMMLSIINSSITTKVISRWSSLACNIALDAVKTVQFEENGRKEIDIKKYARVEKIPGGIIEDSCVLRGVMINKDVTHPRMRRYIKNPRIVLLDSSLEYKKGESQTDIEITREEDFTRILQMEEEYIHQLCEDIIQLKPDVVITEKGISDLAQHYLMRANVTAIRRVRKTDNNRIARACGARIVSRPEELREDDVGTGAGLLEIKKIGDEYFTFITDCKDPKACTILLRGASKEILSEVERNLQDAMQVCRNVLLDPQLVPGGGASEMAVAHALTEKSKAMTGVEQWPYRAVAQALEVIPRTLIQNCGASTIRLLTSLRAKHTQESCETWGVNGETGTLVDMKELGIWEPLAVKLQTYKTAVETAVLLLRIDDIVSGHKKKGDDQNRQTGAPDAGQE	binds
Cct8 (protein, UniProt P42932 1-548) MALHVPKAPGFAQMLKDGAKHFSGLEEAVYRNIQACKELAQTTRTAYGPNGMNKMVINRLEKLFVTNDAATILRELEVQHPAAKMIVMASHMQEQEVGDGTNFVLVFAGALLELAEELLRIGLSVSEVISGYEIACKKAHEILPELVCCSAKNLRDVDEVSSLLRTSIMSKQYGSETFLAKLIAQACVSIFPDSGNFNVDNIRVCKILGSGIYSSSVLHGMVFKKETEGDVTSVKDAKIAVYSCPFDGMITETKGTVLIKTAEELMNFSKGEENLMDAQVKAIAGTGANVIVTGGKVADIALHYANKYNIMLVRLNSKWDLRRLCKTVGATALPKLTPPVQEEMGHCDSVYLSEVGDTQVVVFKHEKEDGAISTIVLRGSTDNLMDDIERAVDDGVNTFKVLTRDKRLVPGGGATEIELAKQITSYGETCPGLEQYAIKKFAEAFEAIPRALAENSGVKANEVISKLYSVHQEGNKNVGLDIEAEVPAVKDMLEASILDTYLGKYWAIKLATNAAVTVLRVDQIIMAKPAGGPKPPSGKKDWDDDQND	binds
lysine demethylase Kdm3a (protein, UniProt Q6PCM1 1-1323) MVLTLGESWPVLVGKRFLSLSAAEGNEGGQDNWDLERVAEWPWLSGTIRAVSHTDVTKKDLKVCVEFDGESWRKRRWIDVYSLQRKAFLVEHNLVLAERKSPEVPEQVIQWPAIMYKSLLDKAGLGAITSVRFLGDQQSVFVSKDLLKPIQDVNSLRLSLTDNQTVSKEFQALIVKHLDESHLLQGDKNLVGSEVKIYSLDPSTQWFSATVVHGNPSSKTLQVNCEEIPALKIVDPALIHVEVVHDNFVTCGNSTRTGAVKRKSSENNGSSVSKQAKSCSEASPSMCPVQSVPTTVFKEILLGCTAATPSSKDPRQQNTPQAANSPPNIGAKLPQGCHKQNLPEELSSCLNTKPEVPRTKPDVCKEGLLSSKSSQVGAGDLKILSEPKGSCIQPKTNTDQESRLESAPQPVTGLPKECLPAKTSSKAELDIATTPELQKHLEHAASTSDDLSDKPEVKAGVTSLNSCAEKKVEPSHLGSQSQNLKETSVKVDNESCCTRSSNKTQTPPARKSVLTDPDKVRKLQQSGEAFVQDDSCVNIVAQLPKCRECRLDSLRKDKDQQKDSPVFCRFFHFRRLQFNKHGVLRVEGFLTPNKYDSEAIGLWLPLTKNVVGTDLDTAKYILANIGDHFCQMVISEKEAMSTIEPHRQVAWKRAVKGVREMCDVCDTTIFNLHWVCPRCGFGVCVDCYRMKRKNCQQGAAYKTFSWIRCVKSQIHEPENLMPTQIIPGKALYDVGDIVHSVRAKWGIKANCPCSNRQFKLFSKPALKEDLKQTSLSGEKPTLGTMVQQSSPVLEPVAVCGEAASKPASSVKPTCPTSTSPLNWLADLTSGNVNKENKEKQLTMPILKNEIKCLPPLPPLNKPSTVLHTFNSTILTPVSNNNSGFLRNLLNSSTAKTENGLKNTPKILDDIFASLVQNKTSSDSSKRPQGLTIKPSILGFDTPHYWLCDNRLLCLQDPNNKSNWNVFRECWKQGQPVMVSGVHHKLNTELWKPESFRKEFGEQEVDLVNCRTNEIITGATVGDFWDGFEDVPNRLKNDKEKEPMVLKLKDWPPGEDFRDMMPSRFDDLMANIPLPEYTRRDGKLNLASRLPNYFVRPDLGPKMYNAYGLITPEDRKYGTTNLHLDVSDAANVMVYVGIPKGQCEQEEEVLRTIQDGDSDELTIKRFIEGKEKPGALWHIYAAKDTEKIREFLKKVSEEQGQDNPADHDPIHDQSWYLDRSLRKRLYQEYGVQGWAIVQFLGDVVFIPAGAPHQVHNLYSCIKVAEDFVSPEHVKHCFWLTQEFRYLSQTHTNHEDKLQVKNVIYHAVKDAVAMLKASESSLGKP	binds
